# The supplement of paper PMC10849652
# The chains behind the UniProt entries cited, without tags or fusion partners. Where a name states a change or a piece, a line headed by the entry shows the natural chain unless it says otherwise.
# UniProt Q96GE9: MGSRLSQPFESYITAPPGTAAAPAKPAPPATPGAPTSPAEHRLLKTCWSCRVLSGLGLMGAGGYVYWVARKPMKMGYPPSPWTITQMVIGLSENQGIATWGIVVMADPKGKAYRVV
# UniProt Q6P3S1: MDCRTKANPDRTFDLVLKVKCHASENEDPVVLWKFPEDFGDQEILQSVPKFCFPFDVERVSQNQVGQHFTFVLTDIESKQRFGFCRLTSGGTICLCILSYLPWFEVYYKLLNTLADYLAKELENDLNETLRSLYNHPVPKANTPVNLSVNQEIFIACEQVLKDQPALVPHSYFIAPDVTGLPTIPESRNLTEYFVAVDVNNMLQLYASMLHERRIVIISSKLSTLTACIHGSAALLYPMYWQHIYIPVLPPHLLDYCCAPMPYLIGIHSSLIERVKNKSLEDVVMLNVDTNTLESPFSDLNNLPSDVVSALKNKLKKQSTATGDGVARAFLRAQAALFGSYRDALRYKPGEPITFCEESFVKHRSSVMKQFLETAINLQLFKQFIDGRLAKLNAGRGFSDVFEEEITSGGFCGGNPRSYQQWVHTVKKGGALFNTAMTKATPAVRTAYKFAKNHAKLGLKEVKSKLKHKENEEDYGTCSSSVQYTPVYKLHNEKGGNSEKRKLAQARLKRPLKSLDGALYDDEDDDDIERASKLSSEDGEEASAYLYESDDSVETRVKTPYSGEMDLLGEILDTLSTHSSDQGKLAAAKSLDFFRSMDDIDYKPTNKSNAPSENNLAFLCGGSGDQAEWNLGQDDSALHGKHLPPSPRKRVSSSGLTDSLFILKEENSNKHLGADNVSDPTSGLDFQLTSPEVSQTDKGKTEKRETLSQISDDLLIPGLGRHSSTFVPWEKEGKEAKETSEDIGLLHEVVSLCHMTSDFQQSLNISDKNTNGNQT
# UniProt Q9BTC0, whole entry, looked up: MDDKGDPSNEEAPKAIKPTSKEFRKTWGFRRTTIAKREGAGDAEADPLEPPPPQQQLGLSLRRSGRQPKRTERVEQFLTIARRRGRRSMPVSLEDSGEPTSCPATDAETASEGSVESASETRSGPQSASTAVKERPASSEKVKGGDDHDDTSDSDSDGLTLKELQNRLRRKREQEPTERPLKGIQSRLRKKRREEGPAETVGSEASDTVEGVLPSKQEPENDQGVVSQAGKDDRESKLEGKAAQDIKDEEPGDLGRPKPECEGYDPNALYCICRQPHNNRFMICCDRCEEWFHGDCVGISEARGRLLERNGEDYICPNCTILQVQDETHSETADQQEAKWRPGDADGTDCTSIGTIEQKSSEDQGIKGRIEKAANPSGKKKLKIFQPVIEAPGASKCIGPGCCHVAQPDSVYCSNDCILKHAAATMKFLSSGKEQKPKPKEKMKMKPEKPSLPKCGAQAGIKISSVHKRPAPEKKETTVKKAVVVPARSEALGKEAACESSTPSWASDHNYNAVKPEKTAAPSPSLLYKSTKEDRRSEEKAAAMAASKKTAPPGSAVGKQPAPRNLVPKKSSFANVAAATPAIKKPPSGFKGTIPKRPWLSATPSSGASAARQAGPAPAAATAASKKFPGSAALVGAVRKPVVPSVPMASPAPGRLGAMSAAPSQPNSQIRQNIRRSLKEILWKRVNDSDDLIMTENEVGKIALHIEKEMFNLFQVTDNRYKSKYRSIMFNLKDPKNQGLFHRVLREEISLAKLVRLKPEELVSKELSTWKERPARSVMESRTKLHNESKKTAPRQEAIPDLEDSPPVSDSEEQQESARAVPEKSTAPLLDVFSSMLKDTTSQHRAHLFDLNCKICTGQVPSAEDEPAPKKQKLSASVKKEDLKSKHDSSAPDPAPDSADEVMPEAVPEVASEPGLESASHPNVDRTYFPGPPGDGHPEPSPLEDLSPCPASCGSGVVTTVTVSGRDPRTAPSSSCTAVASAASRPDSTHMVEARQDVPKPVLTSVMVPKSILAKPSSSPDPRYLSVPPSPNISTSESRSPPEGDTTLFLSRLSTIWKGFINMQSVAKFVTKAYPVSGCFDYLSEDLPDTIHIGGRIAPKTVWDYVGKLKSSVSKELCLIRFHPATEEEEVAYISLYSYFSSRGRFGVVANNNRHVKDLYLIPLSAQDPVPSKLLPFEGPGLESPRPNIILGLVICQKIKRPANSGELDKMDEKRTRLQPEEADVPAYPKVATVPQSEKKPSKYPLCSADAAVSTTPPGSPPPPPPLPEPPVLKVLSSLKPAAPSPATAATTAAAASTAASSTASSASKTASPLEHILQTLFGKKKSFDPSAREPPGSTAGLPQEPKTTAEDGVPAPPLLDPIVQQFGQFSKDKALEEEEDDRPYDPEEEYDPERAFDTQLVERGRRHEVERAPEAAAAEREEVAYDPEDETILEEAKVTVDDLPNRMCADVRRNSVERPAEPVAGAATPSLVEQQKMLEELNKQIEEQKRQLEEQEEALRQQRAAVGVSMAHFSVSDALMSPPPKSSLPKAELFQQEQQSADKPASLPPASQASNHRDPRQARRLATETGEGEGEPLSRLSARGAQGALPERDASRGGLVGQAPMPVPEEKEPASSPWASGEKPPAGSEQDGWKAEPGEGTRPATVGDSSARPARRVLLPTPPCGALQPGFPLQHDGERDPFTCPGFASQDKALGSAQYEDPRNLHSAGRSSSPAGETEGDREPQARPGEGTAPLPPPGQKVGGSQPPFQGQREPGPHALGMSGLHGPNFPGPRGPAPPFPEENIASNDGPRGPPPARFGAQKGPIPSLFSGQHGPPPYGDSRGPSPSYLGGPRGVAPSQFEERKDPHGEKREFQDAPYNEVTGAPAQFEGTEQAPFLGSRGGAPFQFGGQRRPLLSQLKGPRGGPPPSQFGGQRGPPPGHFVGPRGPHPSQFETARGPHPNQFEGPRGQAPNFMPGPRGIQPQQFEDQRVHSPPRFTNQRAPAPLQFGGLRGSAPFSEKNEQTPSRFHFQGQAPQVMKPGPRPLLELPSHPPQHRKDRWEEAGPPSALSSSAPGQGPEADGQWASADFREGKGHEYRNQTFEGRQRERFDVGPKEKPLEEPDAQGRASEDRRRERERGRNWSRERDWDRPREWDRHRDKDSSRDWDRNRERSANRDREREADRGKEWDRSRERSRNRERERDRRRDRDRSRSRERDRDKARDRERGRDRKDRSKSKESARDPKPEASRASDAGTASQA
# UniProt Q9NVP1: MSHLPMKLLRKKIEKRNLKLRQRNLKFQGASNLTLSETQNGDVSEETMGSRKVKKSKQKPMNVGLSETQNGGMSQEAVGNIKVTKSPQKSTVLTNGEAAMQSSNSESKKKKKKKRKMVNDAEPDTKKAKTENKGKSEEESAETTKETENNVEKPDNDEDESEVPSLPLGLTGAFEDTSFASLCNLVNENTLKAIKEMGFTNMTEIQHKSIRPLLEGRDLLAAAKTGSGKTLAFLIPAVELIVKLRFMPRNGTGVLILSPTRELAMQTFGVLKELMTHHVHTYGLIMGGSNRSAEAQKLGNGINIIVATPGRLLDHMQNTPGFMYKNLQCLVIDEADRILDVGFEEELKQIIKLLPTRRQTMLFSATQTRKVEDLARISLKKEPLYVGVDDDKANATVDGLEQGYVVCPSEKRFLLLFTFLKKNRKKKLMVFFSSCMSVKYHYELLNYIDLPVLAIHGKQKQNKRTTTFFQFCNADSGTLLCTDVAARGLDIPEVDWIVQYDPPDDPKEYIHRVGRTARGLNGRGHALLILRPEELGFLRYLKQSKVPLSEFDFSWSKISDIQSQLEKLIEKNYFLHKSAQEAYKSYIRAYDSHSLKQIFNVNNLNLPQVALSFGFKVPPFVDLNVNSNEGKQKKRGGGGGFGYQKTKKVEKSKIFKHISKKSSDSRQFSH
# UniProt Q7L7V1: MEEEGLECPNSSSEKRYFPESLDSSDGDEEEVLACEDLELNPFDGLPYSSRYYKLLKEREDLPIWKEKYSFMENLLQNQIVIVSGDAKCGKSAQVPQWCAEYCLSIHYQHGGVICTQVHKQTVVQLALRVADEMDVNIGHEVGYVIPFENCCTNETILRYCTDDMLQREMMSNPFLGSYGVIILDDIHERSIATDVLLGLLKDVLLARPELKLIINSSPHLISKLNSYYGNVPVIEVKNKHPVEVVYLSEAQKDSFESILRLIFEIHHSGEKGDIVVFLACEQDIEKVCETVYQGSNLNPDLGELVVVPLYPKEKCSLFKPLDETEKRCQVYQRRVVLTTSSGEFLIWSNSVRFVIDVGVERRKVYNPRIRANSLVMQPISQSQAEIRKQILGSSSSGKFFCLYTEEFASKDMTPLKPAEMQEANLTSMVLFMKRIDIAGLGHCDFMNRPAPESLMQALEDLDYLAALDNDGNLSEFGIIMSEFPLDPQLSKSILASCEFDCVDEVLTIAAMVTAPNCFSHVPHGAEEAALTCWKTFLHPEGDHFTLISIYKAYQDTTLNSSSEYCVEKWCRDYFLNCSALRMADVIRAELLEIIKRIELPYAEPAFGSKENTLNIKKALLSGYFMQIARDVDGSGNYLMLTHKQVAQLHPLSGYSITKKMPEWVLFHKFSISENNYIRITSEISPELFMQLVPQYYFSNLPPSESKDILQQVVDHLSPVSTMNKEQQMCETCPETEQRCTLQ
# UniProt P80370: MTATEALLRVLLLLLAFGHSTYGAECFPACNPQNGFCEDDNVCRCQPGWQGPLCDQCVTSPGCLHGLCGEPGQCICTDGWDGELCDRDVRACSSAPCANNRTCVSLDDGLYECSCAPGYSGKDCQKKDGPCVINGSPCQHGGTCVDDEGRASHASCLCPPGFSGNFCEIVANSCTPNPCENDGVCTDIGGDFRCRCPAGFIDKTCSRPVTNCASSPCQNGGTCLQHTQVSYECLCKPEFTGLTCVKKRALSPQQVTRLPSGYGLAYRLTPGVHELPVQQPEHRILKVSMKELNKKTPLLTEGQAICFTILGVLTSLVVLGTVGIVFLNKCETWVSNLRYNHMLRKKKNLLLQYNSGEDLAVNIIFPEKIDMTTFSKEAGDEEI
# UniProt Q9UHL0: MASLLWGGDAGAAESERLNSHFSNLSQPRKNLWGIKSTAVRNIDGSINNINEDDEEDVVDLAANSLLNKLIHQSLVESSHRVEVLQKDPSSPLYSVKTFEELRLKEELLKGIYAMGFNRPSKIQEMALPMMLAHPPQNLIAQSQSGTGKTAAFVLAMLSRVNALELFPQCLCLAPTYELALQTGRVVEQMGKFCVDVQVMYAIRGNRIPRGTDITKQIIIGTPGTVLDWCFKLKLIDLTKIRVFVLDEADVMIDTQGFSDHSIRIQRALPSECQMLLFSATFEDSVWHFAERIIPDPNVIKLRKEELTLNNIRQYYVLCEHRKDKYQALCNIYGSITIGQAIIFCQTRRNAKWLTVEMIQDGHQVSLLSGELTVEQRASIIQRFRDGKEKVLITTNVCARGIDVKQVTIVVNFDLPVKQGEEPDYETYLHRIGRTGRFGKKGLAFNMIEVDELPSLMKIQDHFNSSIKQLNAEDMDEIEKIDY
# UniProt O76075: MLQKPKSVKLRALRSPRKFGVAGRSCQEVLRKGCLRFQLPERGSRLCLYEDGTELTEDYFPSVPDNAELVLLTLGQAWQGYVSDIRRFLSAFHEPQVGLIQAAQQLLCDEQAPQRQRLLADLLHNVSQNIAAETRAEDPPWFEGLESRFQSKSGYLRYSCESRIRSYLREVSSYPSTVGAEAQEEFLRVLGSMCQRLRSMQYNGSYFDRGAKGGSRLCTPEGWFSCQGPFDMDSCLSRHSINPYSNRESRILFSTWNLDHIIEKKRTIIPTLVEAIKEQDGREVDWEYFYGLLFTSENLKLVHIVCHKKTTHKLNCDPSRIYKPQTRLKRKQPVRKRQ
# UniProt Q15392: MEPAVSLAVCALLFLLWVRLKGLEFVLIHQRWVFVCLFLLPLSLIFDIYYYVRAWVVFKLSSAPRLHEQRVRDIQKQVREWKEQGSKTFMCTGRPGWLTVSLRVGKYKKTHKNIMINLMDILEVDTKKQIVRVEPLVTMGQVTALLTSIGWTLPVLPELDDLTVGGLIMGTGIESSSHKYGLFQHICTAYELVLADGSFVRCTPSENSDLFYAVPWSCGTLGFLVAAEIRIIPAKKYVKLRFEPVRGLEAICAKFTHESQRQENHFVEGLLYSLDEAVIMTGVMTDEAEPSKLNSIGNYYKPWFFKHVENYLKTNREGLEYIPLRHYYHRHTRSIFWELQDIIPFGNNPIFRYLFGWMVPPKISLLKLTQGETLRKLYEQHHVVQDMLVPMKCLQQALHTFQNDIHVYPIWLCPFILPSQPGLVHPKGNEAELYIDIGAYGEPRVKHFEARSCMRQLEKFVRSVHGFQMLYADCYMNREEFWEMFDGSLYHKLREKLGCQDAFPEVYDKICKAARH
# UniProt Q6IAN0: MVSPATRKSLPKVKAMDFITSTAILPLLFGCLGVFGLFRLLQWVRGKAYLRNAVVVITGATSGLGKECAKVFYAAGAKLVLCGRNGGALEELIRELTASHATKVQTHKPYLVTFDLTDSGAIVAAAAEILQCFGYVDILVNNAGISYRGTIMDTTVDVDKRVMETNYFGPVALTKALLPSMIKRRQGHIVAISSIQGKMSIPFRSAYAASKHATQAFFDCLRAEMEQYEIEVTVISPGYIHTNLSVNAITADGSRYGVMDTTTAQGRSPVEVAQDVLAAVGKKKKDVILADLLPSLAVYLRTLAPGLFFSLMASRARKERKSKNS
# Some of the results follow.
# What was measured:
# Test in all cases: log2 fold change, soluble protein after heating vs DMSO (PISA); higher = thermal stabilisation; K562 cells, 10 uM, 30 min; active = over 0.2 and 3.5 SD of the protein, either way, in both replicates (recomputed)
# [1] = compound: CC[C@@H]1C(=O)N(C)c2cnc(Nc3ccc(C(=O)NC4CCN(C)CC4)cc3OC)nc2N1C1CCCC1
# Method in brief: (§1)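 Quantification of soluble protein used TMTpro 16plex LC-MS/MS, with channel sums equalised. Samples were the supernatant after 21,000xg for 90 min of pooled aliquots from K562 cells (2×10^6 cells/mL) treated with 10 μM compound for 30 min, heated for 3 min over 48°C-58°C, and extracted in PBS with 0.5% NP-40 at 4°C. Values, from duplicates, describe thermal stability against control samples on a log2 fold-change scale.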
# epoxomicin = compound: CC[C@H](C)[C@@H](C(=O)N[C@@H]([C@@H](C)O)C(=O)N[C@@H](CC(C)C)C(=O)[C@]1(CO1)C)NC(=O)[C@H]([C@@H](C)CC)N(C)C(=O)C [epoxomicin]
# Method in brief: as §1
# [2] = compound: CCn1c(C(=O)N(C2CC2)C2CC2)cc2c3c(ncn3C)c(Nc3cc(C)n(C)n3)nc21
# Method in brief: as §1
# rosiglitazone = compound: CN(CCOC1=CC=C(C=C1)C[C@H]2C(=O)NC(=O)S2)C3=CC=CC=N3 (racemic) [rosiglitazone]
# Method in brief: as §1
# Tubastatin A = compound: CN1CCc2c(c3ccccc3n2Cc2ccc(C(=O)NO)cc2)C1 [Tubastatin A]
# Method in brief: as §1
# [3] = compound: CNC(=O)C1=CC=CC=C1NC2=NC(=NC=C2Cl)NC3=C(C=C(C=C3)N4CCOCC4)OC
# Method in brief: as §1
# rucaparib = compound: CNCc1ccc(-c2[nH]c3cc(F)cc4c3c2CCNC4=O)cc1 [rucaparib]
# Method in brief: as §1
# encorafenib = compound: COC(=O)N[C@@H](C)CNc1nccc(-c2cn(C(C)C)nc2-c2cc(Cl)cc(NS(C)(=O)=O)c2F)n1 [encorafenib]
# Method in brief: as §1
# volasertib = compound: CC[C@@H]1C(=O)N(C)c2cnc(Nc3ccc(C(=O)N[C@H]4CC[C@H](N5CCN(CC6CC6)CC5)CC4)cc3OC)nc2N1C(C)C [volasertib]
# Method in brief: as §1
# [4] = compound: CC[C@H](C)N1C=C(C2=C(C=C(C=C21)C3=CN=C(C=C3)N4CCNCC4)C(=O)NCC5=C(C=C(NC5=O)C)C)C
# Method in brief: as §1
# [5] = compound: CCn1cc(-c2ccnc3[nH]c(-c4cccc(CN(C)C)c4)cc23)c(-c2ccc(NC(=O)N(C)C)cc2)n1
# Method in brief: as §1
# [6] = compound: CN(C)CC(=O)Nc1ccc2[nH]c(=O)c3ccccc3c2c1
# Method in brief: as §1
# [7] = compound: CN1C2=C(C3=C1C(=O)N(N=C3)CC4=CC(=CC=C4)N)SC(=C2)S(=O)C
# Method in brief: as §1
# [8] = compound: CN1CCC(CNc2ccc3ncc(-c4cccc(OC(F)(F)F)c4)n3n2)CC1
# Method in brief: as §1
# saracatinib = compound: CN1CCN(CCOc2cc(OC3CCOCC3)c3c(Nc4c(Cl)ccc5c4OCO5)ncnc3c2)CC1 [saracatinib]
# Method in brief: as §1
# sotrastaurin = compound: CN1CCN(c2nc(C3=C(c4c[nH]c5ccccc45)C(=O)NC3=O)c3ccccc3n2)CC1 [sotrastaurin]
# Method in brief: as §1
# defactinib = compound: CNC(=O)c1ccc(Nc2ncc(C(F)(F)F)c(NCc3nccnc3N(C)S(C)(=O)=O)n2)cc1 [defactinib]
# Method in brief: as §1
# [9] = compound: CNc1nc(-c2ccc3c(N)n[nH]c3c2)cc(N2C[C@@H](C(=O)NC3CCCCC3)CC[C@H]2C)n1
# Method in brief: as §1
# [10] = compound: COC(=O)[C@H](CCSC)NC(=O)C1=C(C=C(C=C1)NC[C@H](CS)N)C2=CC=CC=C2
# Method in brief: as §1
# alvocidib = compound: CN1CC[C@H](c2c(O)cc(O)c3c(=O)cc(-c4ccccc4Cl)oc23)[C@H](O)C1 [alvocidib]
# Method in brief: as §1
Target,log2 fold change [1],log2 fold change (epoxomicin),log2 fold change [2],log2 fold change (rosiglitazone),log2 fold change (Tubastatin A),log2 fold change [3],log2 fold change (rucaparib),log2 fold change (encorafenib),log2 fold change (volasertib),log2 fold change [4],log2 fold change [5],log2 fold change [6],log2 fold change [7],log2 fold change [8],log2 fold change (saracatinib),log2 fold change (sotrastaurin),log2 fold change (defactinib),log2 fold change [9],log2 fold change [10],log2 fold change (alvocidib)
DHTKD1 (UniProt Q96HY7),inactive: -0.013,inactive: 0.259,inactive: -0.511,inactive: 0.04,inactive: 0.103,inactive: -0.166,inactive: -0.198,inactive: 0.196,–,–,–,–,–,–,–,–,–,–,–,–
DMAC1 (UniProt Q96GE9),inactive: 0.269,inactive: -0.084,–,–,inactive: 0.031,inactive: -0.077,inactive: -0.124,inactive: -0.105,inactive: 0.016,inactive: -0.038,inactive: -0.041,inactive: 0.001,inactive: -0.007,inactive: 0.015,active: -0.509,inactive: 0,inactive: -0.048,inactive: 0.005,inactive: -0.019,–
DENND1B (UniProt Q6P3S1),inactive: -0.058,inactive: -0.308,–,inactive: -0.049,–,–,inactive: 0.11,inactive: -0.06,inactive: -0.366,inactive: -0.297,–,inactive: -0.172,inactive: -0.039,–,inactive: 0.142,inactive: 0.102,inactive: -0.177,inactive: 0.076,inactive: -0.434,inactive: -0.097
DDX27 (UniProt Q96GQ7),inactive: -0.033,inactive: -0.184,–,–,inactive: 0.09,inactive: -0.035,inactive: 0.255,inactive: 0.124,–,inactive: 0.1,inactive: 0.116,inactive: -0.009,inactive: 0.162,inactive: 0.241,inactive: -0.104,inactive: -0.088,inactive: 0.651,inactive: -0.017,inactive: 0.057,–
DHPS (UniProt P49366),inactive: 0.045,inactive: 0.046,–,–,inactive: 0.005,inactive: -0.026,inactive: -0.018,inactive: -0.012,inactive: 0.028,inactive: 0.001,inactive: 0.014,inactive: -0.012,inactive: -0.017,inactive: -0.049,inactive: 0.087,inactive: 0.043,inactive: -0.027,inactive: -0.053,inactive: -0.011,–
DDX5 (UniProt P17844),active: -0.426,inactive: 0.149,–,–,inactive: 0.041,inactive: 0.025,inactive: -0.075,inactive: 0.14,active: -0.589,inactive: 0.103,inactive: -0.083,inactive: 0.101,inactive: 0.018,inactive: 0.019,inactive: -0.055,inactive: -0.206,inactive: -0.206,inactive: -0.021,inactive: -0.085,–
DIDO1 (UniProt Q9BTC0),inactive: 0,inactive: -0.047,inactive: -0.048,–,inactive: 0.216,inactive: -0.07,inactive: 0.093,inactive: 0.046,inactive: -0.033,–,inactive: -0.006,–,inactive: 0.149,inactive: -0.034,inactive: -0.188,inactive: -0.03,–,inactive: 0.069,–,inactive: -0.057
DNAAF5 (UniProt Q86Y56),inactive: 0.217,inactive: -0.341,–,inactive: -0.09,inactive: 0.08,–,inactive: 0.398,inactive: 0.353,inactive: 0.021,–,inactive: 0.083,inactive: 0.088,inactive: 0.456,inactive: 0.248,inactive: -0.084,inactive: -0.22,inactive: 0.058,inactive: 0.138,inactive: -0.17,inactive: 0.217
DDX39A (UniProt O00148),inactive: 0.037,inactive: -0.096,–,–,inactive: 0.007,inactive: -0.143,inactive: 0.111,inactive: -0.016,inactive: -0.104,inactive: 0.034,inactive: -0.123,inactive: -0.002,inactive: 0.038,inactive: -0.016,inactive: 0.018,inactive: -0.149,inactive: -0.213,inactive: -0.041,inactive: -0.032,–
DDX18 (UniProt Q9NVP1),inactive: 0.133,–,–,–,inactive: 0.107,–,inactive: -0.018,inactive: -0.155,–,–,inactive: -0.086,–,inactive: 0.351,inactive: 0.285,inactive: -0.286,inactive: -0.01,–,inactive: 0.218,–,inactive: 0.156
DNAAF2 (UniProt Q9NVR5),inactive: 0.11,inactive: -0.012,–,–,inactive: -0.042,inactive: 0.01,inactive: 0.031,inactive: 0.026,inactive: -0.113,inactive: -0.031,inactive: 0.095,inactive: 0,inactive: 0.042,active: -0.279,inactive: 0.048,inactive: 0,inactive: -0.142,inactive: -0.033,inactive: 0.043,–
DHRS13 (UniProt Q6UX07),inactive: 0.157,–,–,–,inactive: 0.105,inactive: 0.024,inactive: 0.188,inactive: 0.021,–,inactive: 0.139,inactive: -0.077,inactive: 0.225,inactive: 0.143,inactive: 0.098,inactive: -0.03,inactive: -0.17,inactive: -0.032,inactive: 0.174,inactive: -0.114,–
DHX32 (UniProt Q7L7V1),inactive: 0.095,inactive: -0.007,–,–,inactive: -0.126,–,inactive: 0.331,inactive: -0.225,–,–,–,–,–,–,–,–,–,–,–,–
DLC1 (UniProt Q96QB1),inactive: -0.024,inactive: 0.032,–,–,–,–,inactive: -0.055,inactive: -0.168,–,inactive: -0.273,inactive: 0.161,inactive: 0.021,–,inactive: -0.501,–,–,inactive: -0.018,–,inactive: -0.023,–
DLK1 (UniProt P80370),active: 0.43,inactive: 0.012,–,–,–,–,inactive: -0.023,inactive: -0.032,–,–,–,inactive: -0.016,inactive: 0.127,–,inactive: 0.021,–,inactive: -0.08,inactive: -0.09,inactive: 0.159,–
DDX42 (UniProt Q86XP3),inactive: 0.04,inactive: 0.1,inactive: -0.293,inactive: 0.192,inactive: 0.021,inactive: 0.007,inactive: -0.006,inactive: -0.06,inactive: -0.461,–,inactive: -0.022,–,inactive: 0.05,inactive: -0.038,inactive: -0.113,inactive: -0.072,–,inactive: -0.046,–,inactive: -0.127
DDX25 (UniProt Q9UHL0),inactive: -0.082,–,–,inactive: -0.037,inactive: 0.051,–,inactive: -0.092,inactive: 0.016,inactive: -0.154,inactive: 0.01,–,inactive: 0.151,inactive: -0.169,–,inactive: 0.123,–,inactive: -0.301,inactive: 0.135,inactive: 0.008,inactive: -0.127
DFFB (UniProt O76075),inactive: 0.049,inactive: 0.039,–,–,inactive: 0.07,inactive: 0.009,inactive: 0.049,inactive: -0.019,inactive: 0.036,inactive: 0.104,inactive: 0.028,inactive: -0.036,inactive: -0.074,inactive: -0.01,inactive: 0.017,inactive: 0.052,inactive: 0.024,inactive: -0.016,inactive: 0.033,–
DDB1 (UniProt Q16531),inactive: 0.045,inactive: -0.024,–,–,inactive: -0.025,inactive: 0.001,inactive: -0.033,inactive: 0.003,inactive: 0.036,inactive: -0.032,inactive: 0.009,inactive: -0.005,inactive: -0.028,inactive: 0,inactive: 0.04,inactive: 0.04,inactive: 0.002,inactive: -0.035,inactive: 0,–
DHCR24 (UniProt Q15392),inactive: 0.769,inactive: -0.056,–,–,inactive: 0.338,inactive: -0.094,inactive: 0.561,inactive: 0.001,active: 1.21,inactive: 0.104,inactive: 0.06,inactive: 0.236,inactive: -0.094,inactive: 0.525,inactive: 0.761,inactive: 0.567,inactive: -0.017,inactive: 0.117,inactive: 0.01,–
DHRS7B (UniProt Q6IAN0),inactive: -0.079,inactive: -0.106,–,–,inactive: -0.019,inactive: 0.051,inactive: 0.029,inactive: -0.008,inactive: -0.147,inactive: -0.043,inactive: 0.059,inactive: -0.002,inactive: -0.122,active: 0.538,inactive: -0.003,inactive: 0.148,inactive: -0.067,inactive: 0.071,inactive: -0.016,–

# An excerpt from above, limited to log2 fold change [3] and log2 fold change (sotrastaurin):
Target	log2 fold change [3]	log2 fold change (sotrastaurin)
DDX39A (UniProt O00148)	inactive: -0.143	inactive: -0.149
DDX18 (UniProt Q9NVP1)	–	inactive: -0.01
